Results on 1 substance are retold here after article PMC4475061.

These are yes or no findings as the source states them, for the method shown. In cells and extracts the contact can be indirect. Tags and fused reporters may be left off the sequences shown.

The target in the test is T1, GST-CHMP2A (human) (UniProt O43633).
T1 sequence: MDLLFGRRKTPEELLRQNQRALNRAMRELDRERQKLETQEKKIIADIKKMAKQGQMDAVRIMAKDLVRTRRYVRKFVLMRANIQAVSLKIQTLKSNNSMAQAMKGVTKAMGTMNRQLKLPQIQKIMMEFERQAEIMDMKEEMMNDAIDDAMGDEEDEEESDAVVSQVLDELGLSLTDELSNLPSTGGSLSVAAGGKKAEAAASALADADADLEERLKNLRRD
The test is described as follows: pull-down; 293T cells co-transfected with pCAGGS/GST fusions and HA- or YFP-tagged proteins; glutathione-sepharose 3 hr at 4°C; 150 mM NaCl, Triton X-100; Western blot. On the technique in general: A western blot detects proteins with antibodies after separation by electrophoresis.

On to YFP-IST1 WT (human), for which the binding entry is “no binding”.
